Laboratory results as given in the supplement of paper PMC10849652.
Some of the results follow.

Chains of the proteins cited; added tags and fusions are not shown. Lines headed by an entry give the natural chain unless they say otherwise; changes in a name come on top.
UniProt P33681, whole entry, looked up: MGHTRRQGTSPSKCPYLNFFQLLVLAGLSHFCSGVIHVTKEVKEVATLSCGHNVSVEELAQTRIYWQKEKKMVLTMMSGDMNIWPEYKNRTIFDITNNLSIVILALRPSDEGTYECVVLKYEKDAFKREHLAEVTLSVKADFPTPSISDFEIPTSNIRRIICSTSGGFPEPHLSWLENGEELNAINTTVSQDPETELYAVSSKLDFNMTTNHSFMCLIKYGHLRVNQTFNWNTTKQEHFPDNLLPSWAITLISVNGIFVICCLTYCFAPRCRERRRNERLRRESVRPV
UniProt Q07108: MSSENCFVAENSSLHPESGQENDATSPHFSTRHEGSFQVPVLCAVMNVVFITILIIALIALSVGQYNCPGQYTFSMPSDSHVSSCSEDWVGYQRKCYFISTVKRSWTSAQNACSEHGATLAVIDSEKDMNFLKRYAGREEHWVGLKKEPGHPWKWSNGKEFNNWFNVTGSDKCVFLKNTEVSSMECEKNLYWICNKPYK
UniProt O14936: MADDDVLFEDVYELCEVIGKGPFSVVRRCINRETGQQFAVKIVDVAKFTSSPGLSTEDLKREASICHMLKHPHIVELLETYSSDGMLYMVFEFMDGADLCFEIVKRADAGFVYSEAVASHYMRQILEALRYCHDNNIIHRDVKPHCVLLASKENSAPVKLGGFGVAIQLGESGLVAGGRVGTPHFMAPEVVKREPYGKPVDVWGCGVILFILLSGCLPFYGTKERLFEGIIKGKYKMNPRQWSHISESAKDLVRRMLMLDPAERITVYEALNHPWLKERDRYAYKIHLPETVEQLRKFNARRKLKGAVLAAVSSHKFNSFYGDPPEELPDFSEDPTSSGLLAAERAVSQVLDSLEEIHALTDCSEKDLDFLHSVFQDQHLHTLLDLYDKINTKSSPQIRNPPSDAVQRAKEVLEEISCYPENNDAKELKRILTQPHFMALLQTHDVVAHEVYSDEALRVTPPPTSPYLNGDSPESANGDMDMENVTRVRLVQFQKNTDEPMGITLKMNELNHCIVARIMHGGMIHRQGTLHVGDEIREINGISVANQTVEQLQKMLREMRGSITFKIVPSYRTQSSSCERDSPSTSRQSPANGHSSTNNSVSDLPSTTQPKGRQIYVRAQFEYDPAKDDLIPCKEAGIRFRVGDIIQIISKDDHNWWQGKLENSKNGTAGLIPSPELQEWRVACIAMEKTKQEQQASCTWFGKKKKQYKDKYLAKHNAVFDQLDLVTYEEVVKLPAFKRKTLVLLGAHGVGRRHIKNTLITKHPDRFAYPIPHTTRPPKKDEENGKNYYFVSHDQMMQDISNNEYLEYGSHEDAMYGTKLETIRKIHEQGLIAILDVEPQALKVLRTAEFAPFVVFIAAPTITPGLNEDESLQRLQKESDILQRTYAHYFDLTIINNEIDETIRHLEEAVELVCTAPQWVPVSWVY
UniProt Q9HC52: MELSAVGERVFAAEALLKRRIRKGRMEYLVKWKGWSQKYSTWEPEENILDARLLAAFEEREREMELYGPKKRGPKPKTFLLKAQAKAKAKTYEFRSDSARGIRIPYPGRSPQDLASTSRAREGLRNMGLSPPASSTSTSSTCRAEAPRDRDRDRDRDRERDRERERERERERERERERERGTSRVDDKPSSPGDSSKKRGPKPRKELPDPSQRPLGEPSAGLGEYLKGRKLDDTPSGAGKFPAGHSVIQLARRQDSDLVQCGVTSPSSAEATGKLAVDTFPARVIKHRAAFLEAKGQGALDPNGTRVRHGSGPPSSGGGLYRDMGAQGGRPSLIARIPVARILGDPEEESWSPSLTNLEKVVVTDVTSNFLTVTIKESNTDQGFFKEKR
UniProt Q9P0B6: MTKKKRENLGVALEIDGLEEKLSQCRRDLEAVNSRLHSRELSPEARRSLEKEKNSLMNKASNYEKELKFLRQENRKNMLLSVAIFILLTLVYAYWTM
UniProt P30307: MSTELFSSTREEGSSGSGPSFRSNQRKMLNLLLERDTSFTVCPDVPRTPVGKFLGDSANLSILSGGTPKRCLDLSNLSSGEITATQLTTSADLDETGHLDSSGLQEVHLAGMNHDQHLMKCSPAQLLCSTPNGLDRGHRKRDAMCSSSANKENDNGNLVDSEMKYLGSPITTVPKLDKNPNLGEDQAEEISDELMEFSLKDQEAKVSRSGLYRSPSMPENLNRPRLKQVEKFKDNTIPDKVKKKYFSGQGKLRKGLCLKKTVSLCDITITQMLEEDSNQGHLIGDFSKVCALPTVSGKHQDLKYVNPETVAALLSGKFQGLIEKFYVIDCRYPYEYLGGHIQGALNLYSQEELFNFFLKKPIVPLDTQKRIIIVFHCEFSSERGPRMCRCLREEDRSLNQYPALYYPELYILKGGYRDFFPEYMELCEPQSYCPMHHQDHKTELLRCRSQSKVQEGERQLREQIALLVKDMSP
UniProt O96020, whole entry, looked up: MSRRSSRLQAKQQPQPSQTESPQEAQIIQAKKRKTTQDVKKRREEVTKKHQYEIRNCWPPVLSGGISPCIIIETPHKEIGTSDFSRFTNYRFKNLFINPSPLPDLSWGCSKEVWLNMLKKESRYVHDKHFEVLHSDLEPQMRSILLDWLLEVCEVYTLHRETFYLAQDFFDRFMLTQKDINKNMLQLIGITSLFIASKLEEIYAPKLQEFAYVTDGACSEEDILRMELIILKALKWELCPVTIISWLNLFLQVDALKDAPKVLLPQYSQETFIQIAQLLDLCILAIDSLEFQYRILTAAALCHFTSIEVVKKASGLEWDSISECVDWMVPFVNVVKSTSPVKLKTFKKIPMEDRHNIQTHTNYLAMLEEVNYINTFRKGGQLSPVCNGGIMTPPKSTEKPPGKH
UniProt Q7Z3E2: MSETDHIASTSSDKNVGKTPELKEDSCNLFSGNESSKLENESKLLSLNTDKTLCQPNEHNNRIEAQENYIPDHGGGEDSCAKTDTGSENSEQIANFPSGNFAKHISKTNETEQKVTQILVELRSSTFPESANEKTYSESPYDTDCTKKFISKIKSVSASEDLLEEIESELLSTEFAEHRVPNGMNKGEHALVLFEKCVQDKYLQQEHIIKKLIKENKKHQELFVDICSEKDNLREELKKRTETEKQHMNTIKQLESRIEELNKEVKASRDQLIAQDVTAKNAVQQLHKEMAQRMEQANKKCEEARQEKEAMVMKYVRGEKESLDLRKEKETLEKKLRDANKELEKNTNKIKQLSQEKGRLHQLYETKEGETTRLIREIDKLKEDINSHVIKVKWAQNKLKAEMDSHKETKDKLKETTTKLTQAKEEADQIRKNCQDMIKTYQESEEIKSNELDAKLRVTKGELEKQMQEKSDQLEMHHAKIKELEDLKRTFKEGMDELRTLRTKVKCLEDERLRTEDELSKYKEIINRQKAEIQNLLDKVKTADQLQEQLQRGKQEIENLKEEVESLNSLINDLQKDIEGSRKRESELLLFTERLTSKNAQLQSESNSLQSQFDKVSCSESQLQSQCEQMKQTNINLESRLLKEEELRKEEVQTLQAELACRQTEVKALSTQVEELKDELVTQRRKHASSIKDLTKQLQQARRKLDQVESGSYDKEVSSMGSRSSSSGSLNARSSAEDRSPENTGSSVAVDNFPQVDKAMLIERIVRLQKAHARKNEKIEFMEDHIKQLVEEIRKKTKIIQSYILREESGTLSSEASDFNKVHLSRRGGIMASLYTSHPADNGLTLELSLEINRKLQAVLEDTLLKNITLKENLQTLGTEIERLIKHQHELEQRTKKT
UniProt O60583: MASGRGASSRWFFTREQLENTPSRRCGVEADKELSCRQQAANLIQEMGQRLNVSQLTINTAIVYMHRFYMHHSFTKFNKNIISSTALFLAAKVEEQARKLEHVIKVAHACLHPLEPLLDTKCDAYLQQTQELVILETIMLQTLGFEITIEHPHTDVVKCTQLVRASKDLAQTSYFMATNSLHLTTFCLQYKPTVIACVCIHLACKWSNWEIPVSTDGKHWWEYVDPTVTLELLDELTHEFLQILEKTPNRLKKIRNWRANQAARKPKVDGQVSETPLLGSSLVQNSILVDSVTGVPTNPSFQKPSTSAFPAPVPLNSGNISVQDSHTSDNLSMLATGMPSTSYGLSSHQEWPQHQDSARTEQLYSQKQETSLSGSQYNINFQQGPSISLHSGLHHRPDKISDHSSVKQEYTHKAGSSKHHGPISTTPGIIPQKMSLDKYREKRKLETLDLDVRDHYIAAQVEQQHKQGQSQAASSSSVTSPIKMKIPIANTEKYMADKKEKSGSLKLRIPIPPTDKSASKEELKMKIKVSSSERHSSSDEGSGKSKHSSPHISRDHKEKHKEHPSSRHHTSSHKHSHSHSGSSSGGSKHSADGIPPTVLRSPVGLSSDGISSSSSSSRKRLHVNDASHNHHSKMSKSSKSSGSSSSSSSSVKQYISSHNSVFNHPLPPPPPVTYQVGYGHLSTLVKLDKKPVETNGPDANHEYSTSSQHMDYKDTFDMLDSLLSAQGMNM
UniProt A2RUB6: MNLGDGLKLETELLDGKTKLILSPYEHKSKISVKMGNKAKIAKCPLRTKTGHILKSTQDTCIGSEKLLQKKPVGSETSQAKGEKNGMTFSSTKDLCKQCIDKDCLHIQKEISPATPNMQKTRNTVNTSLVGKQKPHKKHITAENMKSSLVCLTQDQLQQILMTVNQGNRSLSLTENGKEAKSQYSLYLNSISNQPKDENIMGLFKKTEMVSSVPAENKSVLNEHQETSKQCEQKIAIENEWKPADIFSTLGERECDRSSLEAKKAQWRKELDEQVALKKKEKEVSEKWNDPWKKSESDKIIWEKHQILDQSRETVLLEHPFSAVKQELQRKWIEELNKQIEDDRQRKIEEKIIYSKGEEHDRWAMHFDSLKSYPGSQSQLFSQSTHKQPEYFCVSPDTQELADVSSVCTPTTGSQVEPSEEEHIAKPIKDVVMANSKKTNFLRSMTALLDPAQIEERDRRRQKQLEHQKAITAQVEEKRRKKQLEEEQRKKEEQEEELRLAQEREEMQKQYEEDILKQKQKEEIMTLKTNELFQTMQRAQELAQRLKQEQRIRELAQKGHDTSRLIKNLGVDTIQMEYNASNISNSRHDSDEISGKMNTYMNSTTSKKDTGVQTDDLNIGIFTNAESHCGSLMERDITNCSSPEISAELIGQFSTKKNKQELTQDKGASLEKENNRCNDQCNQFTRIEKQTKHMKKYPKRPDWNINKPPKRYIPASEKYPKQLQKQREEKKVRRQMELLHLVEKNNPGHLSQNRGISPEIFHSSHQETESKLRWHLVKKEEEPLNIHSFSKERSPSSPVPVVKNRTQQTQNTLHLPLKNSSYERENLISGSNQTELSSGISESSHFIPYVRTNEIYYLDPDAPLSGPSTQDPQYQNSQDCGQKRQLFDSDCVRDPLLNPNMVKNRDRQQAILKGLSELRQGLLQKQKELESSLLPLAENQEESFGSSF
UniProt P16070: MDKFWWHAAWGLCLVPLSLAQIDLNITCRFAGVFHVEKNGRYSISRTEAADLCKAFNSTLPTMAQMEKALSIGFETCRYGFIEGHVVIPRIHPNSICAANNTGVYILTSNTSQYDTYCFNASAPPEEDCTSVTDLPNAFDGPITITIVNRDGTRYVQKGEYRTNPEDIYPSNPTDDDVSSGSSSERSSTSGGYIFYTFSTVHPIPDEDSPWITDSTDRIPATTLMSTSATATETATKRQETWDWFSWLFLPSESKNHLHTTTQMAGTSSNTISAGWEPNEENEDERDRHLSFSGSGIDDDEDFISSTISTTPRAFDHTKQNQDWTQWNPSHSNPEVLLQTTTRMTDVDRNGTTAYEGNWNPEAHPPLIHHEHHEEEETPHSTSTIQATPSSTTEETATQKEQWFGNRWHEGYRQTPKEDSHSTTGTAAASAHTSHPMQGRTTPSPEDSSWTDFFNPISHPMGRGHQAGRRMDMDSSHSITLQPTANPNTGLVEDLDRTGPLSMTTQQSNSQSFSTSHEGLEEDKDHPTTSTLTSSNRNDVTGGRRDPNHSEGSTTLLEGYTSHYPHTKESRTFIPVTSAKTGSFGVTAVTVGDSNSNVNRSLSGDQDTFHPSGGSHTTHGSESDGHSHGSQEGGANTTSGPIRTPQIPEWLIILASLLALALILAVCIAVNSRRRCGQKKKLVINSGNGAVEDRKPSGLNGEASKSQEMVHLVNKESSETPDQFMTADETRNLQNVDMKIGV
UniProt Q9BSQ5: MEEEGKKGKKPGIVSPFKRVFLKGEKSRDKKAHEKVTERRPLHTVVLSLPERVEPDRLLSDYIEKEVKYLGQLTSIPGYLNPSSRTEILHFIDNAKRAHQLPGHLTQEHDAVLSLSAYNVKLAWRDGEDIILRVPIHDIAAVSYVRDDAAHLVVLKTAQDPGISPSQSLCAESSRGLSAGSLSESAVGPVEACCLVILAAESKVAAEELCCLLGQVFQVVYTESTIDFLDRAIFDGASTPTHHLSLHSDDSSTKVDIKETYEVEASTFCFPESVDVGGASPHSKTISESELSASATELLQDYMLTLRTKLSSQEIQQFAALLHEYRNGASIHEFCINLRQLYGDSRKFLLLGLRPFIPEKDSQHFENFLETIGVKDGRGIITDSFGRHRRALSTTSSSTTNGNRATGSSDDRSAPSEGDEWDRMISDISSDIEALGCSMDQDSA

Legend:
Test in all cases: log2 fold change, soluble protein after heating vs DMSO (PISA); higher = thermal stabilisation; K562 cells, 10 uM, 30 min; active = over 0.2 and 3.5 SD of the protein, either way, in both replicates (recomputed)
[1] = compound: C1=CC2=NC=CN=C2C=C1/C=C/3\C(=O)NC(=O)S3
In short: (§1)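 For each measurement, 10 μM compound was applied for 30 min to K562 cells at 2×10^6 cells/mL. Aliquots were heated for 3 min across 48°C-58°C, pooled, and extracted in PBS with 0.5% NP-40 at 4°C; the supernatant after 21,000xg for 90 min was soluble protein. This was quantified by TMTpro 16plex LC-MS/MS with channel sums equalised, and thermal stability was reported relative to control samples from duplicates, on a log2 fold-change scale.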

[2] = compound: C/C(=N\NC(=O)C1=CC(=CC=C1)S(=O)(=O)N2CCOCC2)/C3=C(C=CC(=C3)Cl)O
In short: as §1

[3] = compound: C1=CC(=C(C=C1Cl)C2=NC3=NC=CN=C3C(=N2)NC4=CC=NC=C4)F
In short: as §1

[4] = compound: C1=CC2=C(C=CC(=C2)/C=C\3/C(=O)NC(=NCC4=CC=CS4)S3)N=C1
In short: as §1

[5] = compound: C1=CC=C(C=C1)C2=NC(=C(N2)C3=CC=NC=C3)C4=CC(=C(C=C4)Cl)O
In short: as §1

[6] = compound: C1=CC=C2C(=C1)C3=NNC4=CC=CC(=C43)C2=O
In short: as §1

erlotinib = compound: C#Cc1cccc(Nc2ncnc3cc(OCCOC)c(OCCOC)cc23)c1 [erlotinib]
In short: as §1

[7] = compound: C1=CC(=CC=C1C2=NC3=C(N2)C=C(C=C3)C(=O)N)OC4=CC=C(C=C4)Cl
In short: as §1

[8] = compound: C1CCN(C1)C(=O)NC2=CC=CC(=C2)NC3=NC=C(C(=N3)NCCC4=CN=CN4)Br
In short: as §1

[9] = compound: C1CN(CCC1(CC2=CC=C(C=C2)Cl)N)C3=NC=NC4=C3C=CN4
In short: as §1

Measured: log2 fold change

CD46 (UniProt P15529)
inactive: [1] -0.027

CCDC187, A0A1W2PQX5
inactive: [2] -0.124 | [3] -0.079 | [4] 0.169 | [5] -0.055 | [6] 0.013

CCNL1 (UniProt Q9UK58)
inactive: erlotinib -0.001 | [7] 0.094

CD80 (UniProt P33681)
inactive: erlotinib 0.11 | [2] -0.062 | [7] 0.001 | [4] -0.121 | [5] 0.035 | [6] -0.007 | [8] -0.095 | [9] 0.05

CASP10 isoform 4 (UniProt Q92851)
inactive: [2] 0.138 | [3] 0.026 | [4] 0.124 | [1] -0.046 | [5] 0.051 | [6] -0.04 | [8] -0.13 | [9] -0.21

CD69 (UniProt Q07108)
inactive: [3] 0.05 | [1] 0.085

CASK (UniProt O14936)
inactive: erlotinib -0.018 | [2] -0.07 | [7] 0.01 | [4] 0.038 | [6] -0.136

CBX8 (UniProt Q9HC52)
inactive: [5] -0.066

CCDC57 (UniProt Q2TAC2)
inactive: erlotinib 0.044 | [3] 0.031 | [7] -0.051 | [1] -0.021 | [5] 0.003 | [8] 0.012 | [9] 0.026

CBLL1 (UniProt Q75N03)
inactive: erlotinib 0.058 | [2] -0.007 | [7] -0.01 | [4] -0.111 | [5] 0.095 | [6] 0.036 | [8] -0.077 | [9] 0.113

CDC27 (UniProt G5EA36)
inactive: erlotinib -0.081 | [3] 0.111 | [7] -0.033 | [5] -0.073 | [8] -0.251 | [9] 0.064

CD37 (UniProt P11049)
inactive: [2] -0.106 | [4] 0.008 | [6] 0.107 | [8] -0.083 | [9] 0.305

CDC37 (UniProt K7EKQ2)
inactive: [3] 0.227 | [1] -0.18

CD68 (UniProt P34810)
inactive: erlotinib -0.13 | [7] 0.022 | [1] 0.094

CCDC167 (UniProt Q9P0B6)
inactive: erlotinib 0.068 | [3] 0.008 | [7] -0.041 | [1] 0.054 | [5] 0.072 | [8] 0.054 | [9] 0.224

CDC25C (UniProt P30307)
inactive: [2] 0.244 | [3] -0.275 | [4] -0.019 | [6] -0.111 | [8] -0.184 | [9] -0.224

CD82 (UniProt P27701)
inactive: erlotinib 0.104 | [3] 0.047 | [7] -0.019 | [1] -0.008 | [5] 0.059

CDC25A (UniProt P30304)
inactive: erlotinib 0.061 | [3] -0.01 | [7] -0.111 | [1] -0.04

CCNE2 (UniProt O96020)
inactive: erlotinib -0.145 | [7] 0.068

CCDC186 (UniProt Q7Z3E2)
inactive: erlotinib 0.295 | [7] -0.059 | [1] 0.061

CBARP (UniProt Q8N350)
inactive: [2] -0.153 | [3] -0.019 | [4] -0.045 | [1] 0.046 | [5] 0.052 | [6] -0.039 | [8] -0.161 | [9] 0.164

CCNT2 (UniProt O60583)
inactive: [2] 0 | [3] -0.105 | [4] -0.029 | [5] -0.025 | [6] -0.08 | [8] -0.176 | [9] -0.027

CCDC71L isoform 2 (UniProt Q8N9Z2)
inactive: erlotinib 0.261 | [3] 0.05 | [7] -0.028 | [1] 0.027 | [8] 0.293 | [9] -0.023

CD99L2 isoform 5 (UniProt Q8TCZ2)
inactive: erlotinib 0.089 | [3] -0.047 | [7] -0.039 | [1] -0.039 | [8] 0.054 | [9] -0.035

CCDC85C (UniProt A6NKD9)
inactive: [2] 0.22 | [3] 0.061 | [4] -0.015 | [1] 0.009 | [5] 0.006 | [6] 0.083 | [8] 0.041 | [9] 0.096

CCDC66 (UniProt A2RUB6)
inactive: [3] -0.127

CD44 (UniProt P16070)
inactive: [2] -0.002 | [4] -0.122 | [6] 0.086 | [8] 0.057 | [9] -0.05

CCT6B isoform 3 (UniProt Q92526)
inactive: erlotinib 0.364 | [2] -0.239 | [7] -0.026 | [4] 0.162 | [6] -0.005 | [8] -0.033 | [9] 0.387

CDC37 (UniProt K7EL68)
inactive: [2] 0.064 | [3] -0.023 | [4] 0.067 | [1] -0.004 | [5] -0.068 | [6] 0.053

CD2BP2 (UniProt O95400)
inactive: erlotinib 0.105 | [3] -0.044 | [7] -0.048 | [1] 0.124 | [8] -0.002 | [9] -0.05

Taken from the entries so far (7 entries):
CCDC71L isoform 2 (UniProt Q8N9Z2)
inactive: erlotinib 0.261 | [3] 0.05 | [7] -0.028 | [1] 0.027 | [8] 0.293 | [9] -0.023

CD99L2 isoform 5 (UniProt Q8TCZ2)
inactive: erlotinib 0.089 | [3] -0.047 | [7] -0.039 | [1] -0.039 | [8] 0.054 | [9] -0.035

CCDC85C (UniProt A6NKD9)
inactive: [2] 0.22 | [3] 0.061 | [4] -0.015 | [1] 0.009 | [5] 0.006 | [6] 0.083 | [8] 0.041 | [9] 0.096

CCDC66 (UniProt A2RUB6)
inactive: [3] -0.127

CD44 (UniProt P16070)
inactive: [2] -0.002 | [4] -0.122 | [6] 0.086 | [8] 0.057 | [9] -0.05

CCT6B isoform 3 (UniProt Q92526)
inactive: erlotinib 0.364 | [2] -0.239 | [7] -0.026 | [4] 0.162 | [6] -0.005 | [8] -0.033 | [9] 0.387

CDC37 (UniProt K7EL68)
inactive: [2] 0.064 | [3] -0.023 | [4] 0.067 | [1] -0.004 | [5] -0.068 | [6] 0.053

(next part)

CCNL2 (UniProt Q96S94)
inactive: [3] 0.037

CASP7 isoform 3 (UniProt P55210)
inactive: erlotinib 0.133 | [3] -0.105 | [7] 0.217 | [1] 0.118

CBFA2T2 isoform 4 (UniProt O43439)
inactive: erlotinib -0.111 | [7] -0.065 | [1] 0.048

CCM2 isoform 2 (UniProt Q9BSQ5)
inactive: erlotinib 0.142 | [3] -0.042 | [7] 0.035 | [1] 0.083 | [5] 0.013 | [8] 0.09 | [9] 0.16

CBX3 (UniProt B8ZZ43)
inactive: [1] 0.478

CASP9 (UniProt P55211)
inactive: [2] 0.059 | [3] -0.016 | [4] -0.049 | [5] -0.02 | [6] 0.048 | [8] -0.054 | [9] -0.218

CD33 (UniProt P20138)
inactive: erlotinib 0.054 | [3] 0.175 | [7] -0.013 | [5] -0.08 | [8] -0.006 | [9] 0.094
